The values below come from the supplement of paper PMC5949888.

Most values lie at the floor of the assay. Slopes are relative: functional sequences can read slightly below zero.

The data set concerns Saccharomyces cerevisiae PS128 hsf1 delta, HSF1(1-493) fusion. Description: growth estimate (transactivation domain function in HSF1 fusion, heat-shock survival) (a.u. (slope of normalised read count over time)); higher = stronger growth at 37°C, i.e. more transactivation activity. Conditions: library: random library.
For RDQFRN, the growth estimate was < -0.25.
With RGHFDVM the figure was < -0.25.
For the substance EGKPQPLAGAER, the growth estimate was < -0.25.
The figure for RRDCPGA is < -0.25; for RLRENCFWYRIVGGTTS it is < -0.25; for EHVRQLPSGLKPGRRIFLSP it is < -0.25.
As to CTSS, the growth estimate was < -0.25.
The figure for SGRQGAQPGVCVERCLPACD is < -0.25.
The figure for TSSNVTVLTGVTGQI is < -0.25.
With ISKGPTKVGGKPTFITPTPG the figure was < -0.25; with GSSINVRNGGENNGFTSRAE, < -0.25.
As to LLEDYKMCPFLHVYASIQRP, the growth estimate is < -0.25.
The figure for RLDQQVSGNAQVPSRATYWV is < -0.25; for SRVAWNLSRSPPYWIA it is < -0.25.
The figure for PGPTVGHTLIPRGWPIPRRG is < -0.25; for GRLG it is < -0.25.
The figure for VSLCFYVFAGTGVKVAGYCD is < -0.25; for GTAEGRESLGGPNHTRSLSR it is < -0.25.
Consider AAPHNN, for which the growth estimate is < -0.25.
The figure for AIIQGDWASNAAIRWPRPGL is < -0.25; for ASASSSSVQPRGAIGMVIIQ it is < -0.25; for QIGAASRKKDSRIP it is < -0.25.
With VPRSGWSWCKLGASETLSVT the figure was < -0.25; with VNRSSVQPGYLGCIPTRGPA, < -0.25; with AQASGRLGPAFASGIYCYNL, < -0.25.
The figure for TEADRIWSAWQGEKSGAGAS is < -0.25; for NITTMRMVVMRIKP it is < -0.25; for RRGEVVGPQTILQQSHRRET it is < -0.25.
NPAALSWTASDNHGTRLERP: the growth estimate is < -0.25.
With FRGH the figure was < -0.25; with PVTLDRG, < -0.25; with ARYKETIPRGRVGIDVSCLS, < -0.25.
For STAFFSGTTCP, the growth estimate is < -0.25.
As for ISRLTA, the growth estimate is < -0.25.
The figure for HSGSGYLFTAGRGGLSVCEL is < -0.25; for RLPANCGH it is < -0.25.
With RTPWGVYI the figure was < -0.25.
As to SNLRESGSSRSALHW, the growth estimate was < -0.25.
With LVRSWDVGERVTTRECLYTS the figure was < -0.25; with QLN, < -0.25.
With PFILVWVRVRPGFESSWVAT the figure was < -0.25; with RAGGIIKLSSIGGHE, < -0.25; with RWIL, < -0.25.
With VLKREKRHYGRSLWRRDRRA the figure was < -0.25; with LGVCG, < -0.25.
In the case of FLNTFSDISSCF, the growth estimate is -0.25.
With FRGRLTETTLKQAYEVGQSH the figure was -0.208.
The figure for TTSRLRDDRVRGPTN is < -0.25; for SARISSRAK it is < -0.25.
The figure for HRWFCRSFCRVRGRSLVGMC is < -0.25.
Regarding VIVILISVFGHLWGMT, the growth estimate was < -0.25.
NSTAALGVVRWKEVPSCYAA: the growth estimate is < -0.25.
With LSTTTFTRRGRGAISCTRNI the figure was < -0.25.
The figure for GSFAPS is -0.246.
The figure for MGRRQLIVIGFTPQGM is < -0.25; for SRQDSLGPPSTDPLSRATSV it is < -0.25; for KNGLERRLKSNYPVLLISR it is < -0.25.
For the substance CLGAPEKFSLA, the growth estimate was < -0.25.
The figure for VYAKLYGYLD is < -0.25; for KEIRWRAGKASCQGLNTRRM it is < -0.25; for FKSDVLFLTSDTSIGSGYRN it is -0.228.
With WKMCRCYIAMYQGRLLGIPA the figure was < -0.25; with VSCRAENIAGISLL, < -0.25; with FGPRRFDRHGT, < -0.25.
The figure for SPLSS is < -0.25.
Take SKYAARYDKPI: the growth estimate is < -0.25.
The figure for SGQS is < -0.25; for GWIENTGPGRKSAGGPLTLS it is < -0.25.
Take AACRGGAGKSPPDHPVAEFS: the growth estimate was < -0.25.
The figure for TLDSPTSAPVPGSMAVTQRS is < -0.25.
With SCAWTTLRTCASLWRTALGL the figure was -0.172.
With RGLCEERLNTRSC the figure was < -0.25.
Turning to GAGQ, the growth estimate is < -0.25.
The figure for LRNTAYFSLG is < -0.25.
With SVLNLQQLVYYWGKMSGEVG the figure was < -0.25.
On to EKATPWRQ, for which the growth estimate was < -0.25.
With PFYPVMQSRSTEVTLGNLDR the figure was < -0.25.
For PTLTFMSSWVEHIIDISKSI, the growth estimate was < -0.25.
Turning to RTQSEYSSLVY, the growth estimate was < -0.25.
With GLKDTAGSSSVSMQAQARPK the figure was < -0.25; with LSGSLGTG, < -0.25.
Take SYKYTSQAQSSSVRRNPHEW: the growth estimate is < -0.25.
With GCAVLFPTVWWPTVRGESVT the figure was < -0.25.
With RESGPPGVLHGIC the figure was < -0.25.
With FVLRPVFPMSLRNCLGVRDR the figure was < -0.25; with QPEERCGILGHVLIGL, < -0.25; with WLAQLARGGDPAPYDLSFTR, < -0.25.
Take SSRVLLGCQDNARQNTAVAG: the growth estimate was < -0.25.
With QSIPLGGARLSF the figure was < -0.25.
With NASNYSTERRGCVRPHKVGR the figure was < -0.251.
With TVHRRSVYGS the figure was < -0.25.
As for SEA, the growth estimate was < -0.25.
With ATRCQLGRYVVPSAYKEGGV the figure was -0.246; with VRIGCHGADLSPSYARMSHT, < -0.25; with PPDARTSDI, < -0.25.
With SLRHHIKRQELLKALNAIRD the figure was < -0.25; with PVWLHESS, < -0.25.
With LSNGSRNPSR the figure was < -0.25; with TRLEL, < -0.25.
As for PEAEDKGARTGTPIGTSANQ, the growth estimate is < -0.25.
With KYIDRL the figure was < -0.25; with CARADGTRSICATDESRSAM, < -0.25.
With GGPRVRAGYLSHVLE the figure was < -0.25.
With GWQMGNIVLEH the figure was < -0.25; with PRIER, < -0.25; with RRVCRKSERVHIAQARTCCT, < -0.25.
Regarding WWSGDESGPFLVLSYRTPSL, the growth estimate is < -0.25.
In the case of WSTCALGSDNEVAHHPAWVA, the growth estimate was -0.246.
As for GRSCHSRLDTPVRSLASPNA, the growth estimate is < -0.25.
With RLSREVSSEDNY, the growth estimate is < -0.25.
The figure for VLRTPKARQSMHCGSYSAPE is < -0.25; for EADWPGDPGQLYCLRSIPMP it is < -0.25.
The figure for GDRGRCRIGASMLVTEEIPS is < -0.25; for VLST it is < -0.25.
